± gives the standard deviation of the averaged measurements. These are raw signals, not scaled to a control.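 Maximum concentrations were near the MIC for antimicrobials, 500 µM for most other compounds, and as high as 1 mM for known inducer-like compounds. Deletion strains began with a tenfold smaller inoculum, and wells with growth under 10% of the overall median counted as non-growing.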
System: Escherichia coli BW25113
Assay: growth (OD600 area under curve, 8 h) (OD600 x h); higher = more growth
Method: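 E. coli BW25113 reporter strains (wild type, ΔmarA, ΔsoxS, Δrob, each carrying one of 8 lux reporter plasmids) were grown in 40 µl LB in 384-well plates at 37°C, 800 rpm, with each compound at 4 two-fold concentrations, in biological duplicates. Growth is the baseline-corrected OD600 area under the curve over 8 h (0-8 h WT, 1-9 h deletion strains).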

C[n+]1ccc(-c2cc[n+](C)cc2)cc1 [Paraquat]
growth
Conditions | reporter plasmid: EVC | reporter plasmid: acrABp | reporter plasmid: marRABp | reporter plasmid: micFp | reporter plasmid: ompFp | reporter plasmid: robp | reporter plasmid: soxSp | reporter plasmid: tolCp
0.64 µg/ml, genetic background: wild type | 3.17 ± 0.42 | 3.07 ± 0.17 | 3.03 ± 0.14 | 3.27 ± 0.13 | 2.95 ± 0.29 | 3.19 ± 0.1 | 2.83 ± 0.036 | 3.3 ± 0.1
0.64 µg/ml, genetic background: ΔmarA | 3.2 ± 0.49 | 3.95 ± 0.15 | 3.5 ± 0.047 | 3.18 ± 0.76 | 3.34 ± 0.93 | 3.48 ± 0.29 | 2.68 ± 0.4 | 2.91 ± 0.11
0.64 µg/ml, genetic background: Δrob | 3.13 ± 0.63 | 2.98 ± 0.081 | 3.15 ± 0.58 | 3.23 ± 0.29 | 2.45 ± 0.61 | 2.63 ± 0.32 | 2.72 ± 0.32 | 3.28 ± 0.15
0.64 µg/ml, genetic background: ΔsoxS | 3.43 ± 0.1 | 3.1 ± 0.1 | 2.85 ± 0.25 | 3.04 ± 0.22 | 3.13 ± 0.078 | 3.05 ± 0.31 | 2.85 ± 0.3 | 3.32 ± 0.14
1.3 µg/ml, genetic background: wild type | 3.07 ± 0.44 | 3.1 ± 0.27 | 3.065 ± 0.0089 | 3.15 ± 0.23 | 2.85 ± 0.39 | 3.111 ± 0.02 | 2.74 ± 0.14 | 3.28 ± 0.074
1.3 µg/ml, genetic background: ΔmarA | 3.04 ± 0.48 | 3.95 ± 0.13 | 3.42 ± 0.17 | 2.95 ± 0.48 | 3.32 ± 0.92 | 3.51 ± 0.26 | 2.45 ± 0.45 | 2.8 ± 0.4
1.3 µg/ml, genetic background: Δrob | 2.91 ± 0.73 | 2.82 ± 0.11 | 3.15 ± 0.58 | 2.95 ± 0.26 | 2.38 ± 0.47 | 2.61 ± 0.055 | 2.5 ± 0.44 | 3.15 ± 0.13
1.3 µg/ml, genetic background: ΔsoxS | 3.19 ± 0.25 | 3.12 ± 0.055 | 2.81 ± 0.28 | 2.85 ± 0.33 | 3.07 ± 0.16 | 3 ± 0.32 | 2.59 ± 0.27 | 3.2 ± 0.059
2.6 µg/ml, genetic background: wild type | 3.11 ± 0.25 | 2.71 ± 0.28 | 2.92 ± 0.16 | 3.06 ± 0.21 | 2.9 ± 0.14 | 3.13 ± 0.072 | 2.43 ± 0.16 | 3.1 ± 0.1
2.6 µg/ml, genetic background: ΔmarA | 2.91 ± 0.22 | 3.89 ± 0.22 | 3.54 ± 0.18 | 2.99 ± 0.48 | 3.23 ± 0.94 | 3.5 ± 0.35 | 2.17 ± 0.41 | 2.63 ± 0.48
2.6 µg/ml, genetic background: Δrob | 3.06 ± 0.51 | 2.92 ± 0.026 | 3.17 ± 0.36 | 2.82 ± 0.46 | 2.22 ± 0.39 | 2.55 ± 0.055 | 2.34 ± 0.33 | 3.25 ± 0.094
2.6 µg/ml, genetic background: ΔsoxS | 3.1 ± 0.34 | 3.12 ± 0.28 | 3.04 ± 0.49 | 2.95 ± 0.13 | 3.08 ± 0.24 | 3.23 ± 0.4 | 2.36 ± 0.27 | 3.21 ± 0.074
5.1 µg/ml, genetic background: wild type | 2.48 ± 0.19 | 1.55 ± 0.21 | 1.98 ± 0.36 | 1.88 ± 0.078 | 1.44 ± 0.34 | 1.94 ± 0.26 | 1.64 ± 0.04 | 2.54 ± 0.057
5.1 µg/ml, genetic background: ΔmarA | 2.39 ± 0.36 | 2.98 ± 0.37 | 2.11 ± 0.17 | 2.24 ± 0.65 | 1.89 ± 0.78 | 2.58 ± 0.92 | 1.28 ± 0.019 | 1.95 ± 0.046
5.1 µg/ml, genetic background: Δrob | 2.44 ± 0.77 | 1.58 ± 0.45 | 1.97 ± 0.55 | 2.12 ± 0.65 | 1 ± 0.48 | 1.28 ± 0.014 | 1.46 ± 0.16 | 2.62 ± 0.23
5.1 µg/ml, genetic background: ΔsoxS | 2.62 ± 0.67 | 0.888 ± 0.25 | 1.07 ± 0.85 | 0.942 ± 0.027 | 0.323 ± 0.083 | 0.309 ± 0.34 | 1.09 ± 0.38 | 2.51 ± 0.032

C/C(=C\C(=O)OCCCCCCCCC(=O)O)C[C@@H]1OC[C@H](C[C@@H]2O[C@H]2[C@@H](C)[C@H](C)O)[C@@H](O)[C@H]1O [Pseudomonic acid]
growth
Conditions | reporter plasmid: EVC | reporter plasmid: acrABp | reporter plasmid: marRABp | reporter plasmid: micFp | reporter plasmid: ompFp | reporter plasmid: robp | reporter plasmid: soxSp | reporter plasmid: tolCp
0.25 µg/ml, genetic background: wild type | 2.96 ± 0.36 | 3.27 ± 0.33 | 3.19 ± 0.26 | 3.24 ± 0.14 | 3.01 ± 0.27 | 3.13 ± 0.097 | 3.26 ± 0.063 | 3.19 ± 0.17
0.25 µg/ml, genetic background: ΔmarA | 3.14 ± 0.38 | 4.32 ± 0.55 | 3.78 ± 0.19 | 3.47 ± 0.77 | 3.48 ± 0.84 | 3.92 ± 0.34 | 2.97 ± 0.4 | 2.98 ± 0.34
0.25 µg/ml, genetic background: Δrob | 3.32 ± 0.5 | 2.968 ± 0.015 | 3.37 ± 0.32 | 3.06 ± 0.38 | 2.49 ± 0.37 | 2.84 ± 0.43 | 2.93 ± 0.12 | 3.19 ± 0.044
0.25 µg/ml, genetic background: ΔsoxS | 3.26 ± 0.25 | 3.33 ± 0.14 | 3.1 ± 0.65 | 3.06 ± 0.19 | 2.92 ± 0.27 | 3.19 ± 0.49 | 3.25 ± 0.017 | 3.23 ± 0.12
0.5 µg/ml, genetic background: wild type | 3.18 ± 0.52 | 3.42 ± 0.13 | 3.27 ± 0.14 | 3.32 ± 0.036 | 2.96 ± 0.22 | 3.21 ± 0.12 | 3.35 ± 0.16 | 3.41 ± 0.15
0.5 µg/ml, genetic background: ΔmarA | 3.07 ± 0.43 | 4.11 ± 0.32 | 3.421 ± 0.0076 | 3.57 ± 0.89 | 3.35 ± 0.99 | 3.64 ± 0.46 | 3.15 ± 0.67 | 3.03 ± 0.32
0.5 µg/ml, genetic background: Δrob | 3.23 ± 0.82 | 2.94 ± 0.15 | 3.3 ± 0.3 | 3.39 ± 0.056 | 2.44 ± 0.63 | 2.82 ± 0.27 | 3.24 ± 0.12 | 3.3827 ± 0.0023
0.5 µg/ml, genetic background: ΔsoxS | 3.63 ± 0.14 | 3.54 ± 0.12 | 3.18 ± 0.74 | 3.3 ± 0.083 | 3.21 ± 0.27 | 3.16 ± 0.53 | 3.4 ± 0.093 | 3.657 ± 0.027
1 µg/ml, genetic background: wild type | 3.25 ± 0.47 | 3.54 ± 0.31 | 3.47 ± 0.096 | 3.32 ± 0.062 | 3.25 ± 0.15 | 3.4028 ± 0.00098 | 3.33 ± 0.06 | 3.337 ± 0.024
1 µg/ml, genetic background: ΔmarA | 3.19 ± 0.32 | 4.19 ± 0.38 | 3.73 ± 0.27 | 3.5 ± 0.8 | 3.44 ± 0.99 | 3.98 ± 0.36 | 3.04 ± 0.33 | 3.03 ± 0.34
1 µg/ml, genetic background: Δrob | 3.28 ± 0.46 | 3.36 ± 0.34 | 3.54 ± 0.51 | 3.31 ± 0.44 | 2.89 ± 0.2 | 2.92 ± 0.38 | 3.2 ± 0.17 | 3.39 ± 0.2
1 µg/ml, genetic background: ΔsoxS | 3.5 ± 0.16 | 3.52 ± 0.13 | 3.5 ± 0.61 | 3.18 ± 0.21 | 3.4 ± 0.048 | 3.42 ± 0.43 | 3.26 ± 0.3 | 3.53 ± 0.2
2 µg/ml, genetic background: wild type | 3.11 ± 0.17 | 2.898 ± 0.014 | 2.99 ± 0.21 | 2.852 ± 0.021 | 2.39 ± 0.23 | 2.6322 ± 0.00038 | 3.15 ± 0.25 | 3.07 ± 0.11
2 µg/ml, genetic background: ΔmarA | 2.71 ± 0.23 | 3.16 ± 0.17 | 2.8 ± 0.45 | 3.21 ± 0.72 | 2.88 ± 1.2 | 3.09 ± 0.64 | 2.76 ± 0.2 | 2.65 ± 0.11
2 µg/ml, genetic background: Δrob | 3.09 ± 0.46 | 2.16 ± 0.31 | 2.94 ± 0.41 | 2.91 ± 0.41 | 2.02 ± 0.23 | 2.16 ± 0.17 | 2.98 ± 0.1 | 2.96 ± 0.12
2 µg/ml, genetic background: ΔsoxS | 3.33 ± 0.11 | 2.93 ± 0.12 | 2.57 ± 0.37 | 2.92 ± 0.055 | 2.43 ± 0.34 | 2.54 ± 0.45 | 3.096 ± 0.026 | 3.32 ± 0.094

— the supplement of paper PMC12282887
